Assay results as given in patent US5574070A, “Substituted guanidines having high binding to the sigma receptor and the use thereof” (priority 1993, dated 1996).

Sequences of proteins named here, by UniProt entry; tags and fusion partners are left off.
UniProt Q60492, whole entry: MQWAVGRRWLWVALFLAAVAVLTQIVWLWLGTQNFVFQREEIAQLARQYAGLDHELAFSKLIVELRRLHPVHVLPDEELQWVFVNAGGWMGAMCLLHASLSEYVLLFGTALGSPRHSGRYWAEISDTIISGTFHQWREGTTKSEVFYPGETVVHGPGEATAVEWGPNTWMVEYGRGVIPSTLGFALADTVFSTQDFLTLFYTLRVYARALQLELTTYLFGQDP

Target: T1, sigma receptor from guinea pig brain (Cavia porcellus, UniProt Q60492)
T1 construct: from tissue; host or cells: guinea pig brain membranes
Test: [3H]AZ-DTG binding and photoaffinity labeling of the sigma receptor
Settings: 10 uM
Method: The filters were then irradiated with long-wavelength UV light for a 15 minute period. Filter-bound proteins were solubilized with 50 mM Tris pH 7.4, 0.1% sodium dodecyl sulfate. Solubilized proteins were subjected to SDS-polyacrylamide gel electrophoresis.

How did the “effect on [3H]AZ-DTG labeling of the 29 kD polypeptide” value turn out when `CN1CC[C@]23c4c5ccc(O)c4O[C@H]2[C@@H](O)C=C[C@H]3[C@H]1C5` [morphine] was run?
The value was “unaffected”.
